Reference: patent US6900351B2, “Aminopolycarboxylates, process for producing the same and use thereof” (Tosoh Corporation, priority 2000, dated 2005)

System: activated sludge
Assay: Biodegradability test with activated sludge (modified MITI method, OECD Test Guideline 301C)

With `O=C([O-])CN(CCN(CC(=O)[O-])CC(=O)[O-])CC(=O)[O-].[Na+].[Na+].[Na+].[Na+]` [tetrasodium ethylenediaminetetraacetate] the “degradation in biodegradability test (in words)” value (as in Example 1: sample 30 mg/l, activated sludge 100 mg/l, 25° C., 2 weeks) was “scarcely degraded” and the “degradation in biodegradability test (in words)” value (modified MITI method OECD 301C) was “scarcely degraded”.
